No constants are given. Whether binding was seen depends on the method and setting. Binding seen in cells or lysates may run through a third protein. A result given as binding can be weak or reduced; the word gives no strength. Sequences can lack the tags named with a protein.
Target: T1, His-CooS, His-tagged monofunctional CO dehydrogenase CooS of Thermoanaerobacter kivui (Thermoanaerobacter kivui)
T1 sequence: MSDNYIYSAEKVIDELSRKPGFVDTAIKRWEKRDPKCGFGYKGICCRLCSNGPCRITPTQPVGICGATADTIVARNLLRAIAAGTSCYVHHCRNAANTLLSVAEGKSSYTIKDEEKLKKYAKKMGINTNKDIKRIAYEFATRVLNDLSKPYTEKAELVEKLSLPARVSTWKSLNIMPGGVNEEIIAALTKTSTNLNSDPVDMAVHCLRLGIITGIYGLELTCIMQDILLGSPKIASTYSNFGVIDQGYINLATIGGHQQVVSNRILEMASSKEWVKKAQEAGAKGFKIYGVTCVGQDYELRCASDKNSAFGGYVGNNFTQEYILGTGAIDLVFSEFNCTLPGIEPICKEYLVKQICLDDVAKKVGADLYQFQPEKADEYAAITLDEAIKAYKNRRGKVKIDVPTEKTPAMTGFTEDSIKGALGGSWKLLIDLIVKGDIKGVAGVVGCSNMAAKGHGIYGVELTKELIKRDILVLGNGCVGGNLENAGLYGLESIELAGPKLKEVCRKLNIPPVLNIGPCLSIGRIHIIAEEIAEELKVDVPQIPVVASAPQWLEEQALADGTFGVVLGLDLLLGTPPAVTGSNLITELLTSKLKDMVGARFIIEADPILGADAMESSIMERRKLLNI
Assay: co-purification (Ni2+-NTA affinity chromatography, then SEC), SDS-PAGE; His-tagged protein produced in T. kivui, crude extract on Ni2+-NTA resin, then Superdex 200; strictly anoxic, room temperature, buffers A and B (50 mM Tris/HCl, 150 mM NaCl, 20 mM MgSO4, 20% glycerol, pH 7.5); co-purified protein seen on a Coomassie-stained 12% SDS gel

Protein sequences, listed by entry. Tags and fused reporters are not part of them. Lines headed by an entry give the natural chain unless they say otherwise; changes in a name come on top.
UniProt A0A097AQC8: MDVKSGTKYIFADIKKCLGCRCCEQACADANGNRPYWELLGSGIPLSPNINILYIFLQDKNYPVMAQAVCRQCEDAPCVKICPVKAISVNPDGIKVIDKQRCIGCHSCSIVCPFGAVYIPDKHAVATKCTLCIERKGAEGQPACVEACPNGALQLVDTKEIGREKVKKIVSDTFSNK

binding: binds
Substance: CooF1 of Thermoanaerobacter kivui, small iron-sulfur center containing protein (from UniProt A0A097AQC8)
